Laboratory results as given in article PMC5142333.
Results are given in words; binding and its absence hold for the method and conditions named. Binding seen in cells or lysates may run through a third protein. Some entries that bind do so weakly or less than the wild type. Tags and fused reporters may be left off the sequences shown.

Amino acid sequences for entries named in this document (tags omitted).
UniProt P46934: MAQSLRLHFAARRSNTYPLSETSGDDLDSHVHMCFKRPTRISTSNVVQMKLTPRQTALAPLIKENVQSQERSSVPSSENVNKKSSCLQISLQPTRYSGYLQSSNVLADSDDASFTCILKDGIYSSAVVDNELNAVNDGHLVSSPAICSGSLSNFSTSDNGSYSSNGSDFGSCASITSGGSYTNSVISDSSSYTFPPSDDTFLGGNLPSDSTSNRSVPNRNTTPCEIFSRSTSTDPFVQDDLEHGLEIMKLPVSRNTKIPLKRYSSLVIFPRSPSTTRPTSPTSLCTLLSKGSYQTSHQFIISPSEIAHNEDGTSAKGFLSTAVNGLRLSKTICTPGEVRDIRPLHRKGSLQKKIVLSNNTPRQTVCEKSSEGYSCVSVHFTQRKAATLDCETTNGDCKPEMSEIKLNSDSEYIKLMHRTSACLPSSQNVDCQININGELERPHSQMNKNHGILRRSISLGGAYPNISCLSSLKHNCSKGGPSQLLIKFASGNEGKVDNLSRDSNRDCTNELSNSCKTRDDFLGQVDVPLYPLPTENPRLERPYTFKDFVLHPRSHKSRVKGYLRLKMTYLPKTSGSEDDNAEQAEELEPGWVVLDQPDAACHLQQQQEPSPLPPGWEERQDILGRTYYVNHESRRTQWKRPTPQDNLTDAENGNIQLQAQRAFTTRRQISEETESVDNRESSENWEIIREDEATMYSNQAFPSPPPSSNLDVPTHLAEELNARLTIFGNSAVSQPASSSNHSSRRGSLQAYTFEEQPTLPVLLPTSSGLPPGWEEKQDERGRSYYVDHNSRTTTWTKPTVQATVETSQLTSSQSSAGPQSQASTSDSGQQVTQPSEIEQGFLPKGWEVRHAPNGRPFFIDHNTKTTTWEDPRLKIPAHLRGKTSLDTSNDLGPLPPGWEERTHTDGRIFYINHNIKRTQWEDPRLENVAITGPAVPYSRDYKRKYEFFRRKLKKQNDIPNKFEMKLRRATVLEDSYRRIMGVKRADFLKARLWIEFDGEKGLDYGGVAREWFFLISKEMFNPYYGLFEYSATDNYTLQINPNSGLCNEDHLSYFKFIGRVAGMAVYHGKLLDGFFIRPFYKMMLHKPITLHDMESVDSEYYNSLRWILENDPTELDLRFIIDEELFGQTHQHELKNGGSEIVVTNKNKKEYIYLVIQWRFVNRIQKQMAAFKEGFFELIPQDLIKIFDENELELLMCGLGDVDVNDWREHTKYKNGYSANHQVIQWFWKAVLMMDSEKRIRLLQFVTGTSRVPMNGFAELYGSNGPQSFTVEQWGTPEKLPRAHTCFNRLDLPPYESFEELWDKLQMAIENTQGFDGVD

Target: T1, GST-LITAF 1–77 (human) (UniProt Q99732)
T1 sequence: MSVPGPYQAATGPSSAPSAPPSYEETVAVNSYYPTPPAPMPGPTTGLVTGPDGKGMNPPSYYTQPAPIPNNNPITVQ
Assay: pull-down; GST-LITAF 1–77 constructs (0.2 mg/mL) added to precleared RPE cell lysate (20 mM HEPES pH 7.4, 150 mM NaCl, 1 mM EDTA, 0.5% Triton X-100), 2 h at 4 °C, captured on glutathione sepharose 4B; western blot for NEDD4; only the target purified

binding: binds
Substance: NEDD4 (endogenous, RPE cell lysate) (from UniProt P46934 1-1319)
